# Results reported in the supplement of paper PMC12259267, “Disruption of the KLHL37–N-Myc complex restores N-Myc degradation and arrests neuroblastoma growth in mouse models” (The Journal of Clinical Investigation, 2025).
# Structures can show the parent of a compound that is named as a salt. The list shows a part of the results. Most values come without repeats; read them as rough.
# System: SK-N-BE(2)
# Assay: inhibition of N-Myc immunofluorescence signal per cell relative to control (fraction); higher = stronger N-Myc protein reduction
# Settings: 1 µM; 9 h
row,Structure (SMILES),inhibition of N-Myc immunofluorescence signal per cell
1,C[C@@H](C(=O)N[C@H](C(=O)N1CCC[C@H]1c1nc(C(=O)c2cccc(O)c2)cs1)C1CCCCC1)N(C)C(=O)OC(C)(C)C [cIAP1 ligand 1],0.367
2,Cc1cc(C)cc(Oc2ccc(CNC(=O)[C@H](C)N)cc2C)c1,-0.016
3,O=C(NO)c1cnc(NC2(c3ccccc3)CC2)nc1,-0.289
4,O=C([C@@H](Cc1cccc(C(F)(F)F)c1)NS(=O)(=O)c1cc(F)c2c(c1)CCNC2)N1CCCC1 [PFI-2 (hydrochloride)],0.0556
5,CCO/N=C1\c2ccccc2-c2nc(C#N)c(C#N)nc21,0.00389
6,Cc1ccc2nc(NC(=O)CSc3nc4c(c(=O)n3-c3ccccc3)SCC4)sc2c1,-0.00853
7,Cn1cc(C(=O)Nc2ccc([C@@H]3C[C@H]3NCC3CC3)cc2)cn1,-0.0194
8,O=C[C@@H](O)[C@@H](O)[C@H](O)[C@H](O)CO [D-Mannose],-0.182
9,N[C@@H](Cc1ccccc1)C(=O)N1C/C(=C\c2ccc(Cl)c(Cl)c2)C(=O)/C(=C/c2ccc(Cl)c(Cl)c2)C1,0.217
10,COc1ncc(-c2nc3c(n2C(C)C)[C@H](c2ccc(Cl)cc2)N(c2cc(Cl)cn(C)c2=O)C3=O)c(OC)n1 [Siremadlin],0.104
11,CC(=O)c1cc([N+](=O)[O-])c(Sc2cccc(Cl)c2Cl)s1,0.148
12,CC(C)N(CCCNC(=O)Nc1ccc(C(C)(C)C)cc1)C[C@H]1O[C@@H](n2cc(Br)c3c(N)ncnc32)[C@H](O)[C@@H]1O,-0.259
13,CN(C)c1ccc(C(=O)NCCCCCCC(=O)NO)cc1,0.123
14,Nc1ccccc1NC(=O)CCCCCCC(=O)Nc1ccccc1,-0.158
15,CC[C@H](C)n1cc(C)c2c(C(=O)NCc3c(C)cc(C)[nH]c3=O)cc(-c3ccc(N4CCNCC4)nc3)cc21,-0.136
16,CC(C)(C)NS(=O)(=O)c1cccc2c(NC(=O)[C@H](Cc3ccccc3)NC(=O)C3CCCCC3)cccc12,-0.136
17,c1ccc(CNc2nc(NCc3ccccc3)c3ccccc3n2)cc1,-0.197
18,COc1ccc(Cn2ccc3ccc(C(=O)NO)cc32)cc1,0.0374

# An excerpt from above in order of heavy-atom count, ascending:
row,Structure (SMILES),inhibition of N-Myc immunofluorescence signal per cell
7,Cn1cc(C(=O)Nc2ccc([C@@H]3C[C@H]3NCC3CC3)cc2)cn1,-0.0194
4,O=C([C@@H](Cc1cccc(C(F)(F)F)c1)NS(=O)(=O)c1cc(F)c2c(c1)CCNC2)N1CCCC1 [PFI-2 (hydrochloride)],0.0556
15,CC[C@H](C)n1cc(C)c2c(C(=O)NCc3c(C)cc(C)[nH]c3=O)cc(-c3ccc(N4CCNCC4)nc3)cc21,-0.136

# Carrying on.

row,Structure (SMILES),inhibition of N-Myc immunofluorescence signal per cell
1,CCCCN1CCC(N(Cc2ccccc2)C(=O)Nc2ccc(Cl)c(Cl)c2)CC1,0.11
2,CCCCCCCCCCCCCC(=S)NCCCC[C@H](NC(=O)OCc1ccccc1)C(=O)Nc1ccccc1 [Thiomyristoyl],0.149
3,Nc1cccc2c1CN(C1CCC(=O)NC1=O)C2=O (stereo not given) [Lenalidomide (hemihydrate)],0.34
4,O=C(Nc1ccc(O)c(C(=O)O)c1)c1cccc(NC(=O)c2ccco2)c1,0.0327
5,Cc1cc(C)c(CNC(=O)c2cc(-c3ccc(N4CCN(C)CC4)nc3)cc3c2c(C)cn3C(C)C)c(=O)[nH]1,0.0597
6,Fc1ccc(C(CCCNCC2CCc3[nH]c4ccc(F)cc4c3C2)c2ccc(F)cc2)cc1 (stereo not given),0.115
7,O=C(c1cc(Cc2n[nH]c(=O)c3ccccc23)ccc1F)N1CCN(C(=O)C2CC2)CC1 [Olaparib],0.0224
8,O=C(CCCCCCC(=O)N/N=C/c1ccc(N(c2ccccc2)c2ccccc2)cc1)NO,0.0108
9,O=C(N[C@@H](Cc1coc2ccccc12)B(O)O)[C@@H]1C[C@H]2CC[C@@H]1O2,0.171
10,CN1CCN(c2ccc(-c3cccc(CN4CCOCC4)c3)cc2NC(=O)c2c[nH]c(=O)cc2C(F)(F)F)CC1,0.000296
11,Cc1ccc(N)cc1C(=O)N[C@H](C)c1cccc2ccccc12,-0.162
12,CCCc1ccc(OCC(=O)N(Cc2nc(-c3cccnc3)no2)C(C)C)cc1,0.00478
13,COc1ccc(C[C@H](NC(=O)[C@H](C)NC(=O)CN2CCOCC2)C(=O)N[C@@H](Cc2ccccc2)C(=O)C2(C)CO2)cc1 (stereo in doubt),-0.487
14,O=C(CCCCCN1C(=O)c2cccc3cccc(c23)C1=O)NO [Scriptaid],-0.0882
15,NCCCC(O)(P(=O)(O)O)P(=O)(O)O [Alendronate (sodium hydrate)],0.24
16,CCN(c1cc(-c2ccc(CN3CCOCC3)cc2)cc(C(=O)NCc2c(C)cc(C)[nH]c2=O)c1C)C1CCOCC1 [Tazemetostat],0.0426
17,Cc1ccc(NS(=O)(=O)c2ccc3c(c2)C2C=CCC2C(c2ccc(C(=O)O)cc2)N3)cc1C (stereo not given),0.131
